According to patent US20110142812A1 (STC UNM, published 2011):
Results are given in words; binding and its absence hold for the method and conditions named. Binding can be weak; no strength is given.

Columns and labels:
human FcγRII (human) = assay: surface plasmon resonance, human FcγR
human FcγRIII (human) = assay: surface plasmon resonance, human FcγR

- binding (human FcγRII (human)): binds
- binding (human FcγRIII (human)): binds
B1: Y175L CRP (recombinant mutant C-reactive protein in which tyrosine 175 is replaced by leucine) (ligand)
chain: QTDMSRKAFVFPKESDTSYVSLKAPLTKPLKAFTVCLHFYTELSSTRGYSIFSYATKRQDNEILIFWSKDIGYSFTVGGSEILFEVPEVTVAPVHICTSWESASGIVEFWVDGKPRVRKSLKKGYTVGAEASIILGQEQDSFGGNFEGSQSLVGDIGNVNMWDFVLSPDEINTILLGGPFSPNVLNWRALKYEVQGEVFTKPQLWP
notes: also called CRP mutant Y175L; recombinant mutant CRP (Y175L)
